# At least one compound was matched to its structure with a doubt left.
# System: PC12 cells
# Assay: MTT conversion assay of cell viability under serum deprivation
# Type: cell-based, rat
# Conditions: inhibitor 5 μM (AG1478 1 μM) with leumorphin 1 μM, 24 hr
smiles,measurement,value
COC[C@H]1OC(=O)c2coc3c2[C@@]1(C)C1=C(C3=O)[C@@H]2CCC(=O)[C@@]2(C)C[C@H]1OC(C)=O [Wortmannin],effect of kinase inhibitor on leumorphin-induced enhancement of cell viability,attenuated
